Reference: PMC8615792
No constants are given. Whether binding was seen depends on the method and setting. In cells and extracts the contact can be indirect. Some entries that bind do so weakly or less than the wild type. Where a sequence is shown, tags or fusion partners need not be part of it.

Chains of the proteins cited; added tags and fusions are not shown. Lines headed by an entry give the natural chain unless they say otherwise; changes in a name come on top. A line that says so, or that is headed by a name, gives the form on record, which may keep a tag or linker.
CD44 receptor (standard form; CD44S) (P16070-12, form named): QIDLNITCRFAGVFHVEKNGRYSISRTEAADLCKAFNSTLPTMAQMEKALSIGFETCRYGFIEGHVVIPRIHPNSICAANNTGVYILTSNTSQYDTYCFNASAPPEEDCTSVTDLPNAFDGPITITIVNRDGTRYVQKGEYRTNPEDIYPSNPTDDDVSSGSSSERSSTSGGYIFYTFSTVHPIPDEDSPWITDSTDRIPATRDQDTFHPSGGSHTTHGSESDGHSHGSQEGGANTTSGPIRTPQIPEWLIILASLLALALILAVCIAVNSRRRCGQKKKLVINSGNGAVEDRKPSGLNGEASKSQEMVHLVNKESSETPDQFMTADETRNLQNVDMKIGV

How the values were obtained:
Assay in all cases: co-IP; 2 ug selectin-Fc chimera added to MDA-MB-231 cell lysate (1% NP-40, 25 mM Tris-HCl pH 7.5, 100 mM NaCl, 5% glycerol) with Dynabeads Protein G, overnight at 4 °C; beads washed, immunoblot with CD44S antibody; beads only as control; only the target purified
[1] = target: T1, recombinant mouse E-selectin Fc chimera protein (mouse) (UniProt Q00690)
T1 sequence: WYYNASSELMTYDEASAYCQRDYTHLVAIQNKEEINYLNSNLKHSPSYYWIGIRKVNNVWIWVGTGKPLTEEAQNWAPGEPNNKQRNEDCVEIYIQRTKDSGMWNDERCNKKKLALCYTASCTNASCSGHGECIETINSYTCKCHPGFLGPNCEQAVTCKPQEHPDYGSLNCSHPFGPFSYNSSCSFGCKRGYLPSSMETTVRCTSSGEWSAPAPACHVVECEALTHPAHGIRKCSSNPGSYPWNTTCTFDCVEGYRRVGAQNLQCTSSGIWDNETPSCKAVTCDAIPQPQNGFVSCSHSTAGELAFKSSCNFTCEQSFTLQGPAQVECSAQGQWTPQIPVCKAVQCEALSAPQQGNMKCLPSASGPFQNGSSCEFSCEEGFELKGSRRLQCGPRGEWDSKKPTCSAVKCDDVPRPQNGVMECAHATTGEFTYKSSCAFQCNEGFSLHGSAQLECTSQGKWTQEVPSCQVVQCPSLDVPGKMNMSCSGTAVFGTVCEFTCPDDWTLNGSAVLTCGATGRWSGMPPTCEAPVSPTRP

[2] = target: T2, recombinant mouse P-selectin Fc chimera protein (mouse) (UniProt Q01102)
T2 sequence: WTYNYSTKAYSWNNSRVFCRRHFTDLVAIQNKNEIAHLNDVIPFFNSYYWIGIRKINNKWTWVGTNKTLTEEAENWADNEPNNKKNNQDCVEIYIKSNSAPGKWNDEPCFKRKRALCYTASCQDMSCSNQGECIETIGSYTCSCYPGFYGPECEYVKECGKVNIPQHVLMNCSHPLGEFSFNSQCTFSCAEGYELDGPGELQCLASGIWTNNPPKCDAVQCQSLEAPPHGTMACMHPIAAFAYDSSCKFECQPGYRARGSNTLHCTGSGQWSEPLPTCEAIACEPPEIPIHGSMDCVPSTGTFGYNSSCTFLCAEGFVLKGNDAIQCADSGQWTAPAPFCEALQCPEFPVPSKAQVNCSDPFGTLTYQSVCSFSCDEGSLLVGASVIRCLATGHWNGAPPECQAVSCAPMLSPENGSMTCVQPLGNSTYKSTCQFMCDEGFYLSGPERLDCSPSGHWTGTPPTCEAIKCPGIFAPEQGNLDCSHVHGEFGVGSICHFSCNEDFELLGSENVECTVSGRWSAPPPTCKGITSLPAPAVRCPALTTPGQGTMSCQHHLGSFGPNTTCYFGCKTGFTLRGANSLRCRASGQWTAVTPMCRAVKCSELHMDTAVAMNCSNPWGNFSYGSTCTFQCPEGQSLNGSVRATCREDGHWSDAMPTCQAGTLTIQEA

[3] = target: T3, recombinant mouse L-selectin Fc chimera protein (mouse) (UniProt P18337)
T3 sequence: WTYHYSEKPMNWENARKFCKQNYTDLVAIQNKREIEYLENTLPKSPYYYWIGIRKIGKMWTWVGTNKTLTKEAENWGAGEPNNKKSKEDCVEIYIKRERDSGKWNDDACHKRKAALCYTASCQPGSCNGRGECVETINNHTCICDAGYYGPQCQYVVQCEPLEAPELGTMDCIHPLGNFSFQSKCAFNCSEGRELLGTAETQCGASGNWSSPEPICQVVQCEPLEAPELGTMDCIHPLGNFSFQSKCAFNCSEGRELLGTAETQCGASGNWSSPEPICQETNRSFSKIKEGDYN

Measured: binding

CD44 receptor (standard form; CD44S) (from UniProt P16070-12 21-361)
binds: all assays above
